Results as given in the supplement of paper PMC4604168 (melanoma cell lines).
This is one part of the list. Many values rest on one well or one pass, so single values are uncertain.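 Cells were imaged in 1,536-well plates, and nuclei stained with an antibody against cleaved PARP were counted against all DNA-stained nuclei to give the apoptosis fraction. Screening doses were chosen to leave most cells alive, and resting and induced cleaved-PARP levels differ strongly between cell lines.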

system: A101D; test: cleaved PARP positive nuclei fraction relative to DMSO control; melanoma cells; higher = more apoptosis; settings: library dose: low library concentration; 72 h

Compound	cleaved PARP positive nuclei fraction
CC(C)(C)c1cnc(CSc2cnc(NC(=O)C3CCNCC3)s2)o1 + COc1cc2ncnc(Nc3ccc(Oc4ccccc4)cc3)c2cc1OC [SrcI1] (first compound 0.01 µM, partner dose 2 µM)	160%
C#Cc1cccc(Nc2ncnc3cc(OCCOC)c(OCCOC)cc23)c1 [erlotinib] + OCCn1cc(-c2cnc3nnn(Cc4ccc5ncccc5c4)c3n2)cn1 [PF04217903] (first compound 0.8 µM, partner dose 1 µM)	82.6%
Cn1nnc2c(C(N)=O)ncn2c1=O [temozolomide] + Oc1nc(-c2ccc(C(F)(F)F)cc2)nc2c1CSCC2 [XAV939] (first compound 2 µM, partner dose 2 µM)	161%
COCC[n+]1c2c(n(Cc3cnccn3)c1C)C(=O)c1ccccc1C2=O + CN(C)S(=O)(=O)c1ccc2c(c1)/C(=C/c1cc3c([nH]1)CCCC3)C(=O)N2 [SU6656] (first compound 0.0004 µM, partner dose 0.4 µM)	99.3%
C=CCn1c(=O)c2cnc(Nc3ccc(N4CCN(C)CC4)cc3)nc2n1-c1cccc(C(C)(C)O)n1 + CN(NC(=O)CC(=O)NN(C)C(=S)c1ccccc1)C(=S)c1ccccc1 [STA4783] (first compound 0.02 µM, partner dose 0.006 µM)	132%
C=CCNC1=C2C[C@@H](C)C[C@H](OC)[C@H](O)[C@@H](C)/C=C(\C)[C@H](OC(N)=O)[C@@H](OC)/C=C\C=C(/C)C(=O)NC(=CC1=O)C2=O [Tanespimycin] + COc1ccc(-c2ccc3c(N4CCOCC4)nc(N4C[C@@H](C)O[C@@H](C)C4)nc3n2)cc1CO [KU0063794] (first compound 0.002 µM, partner dose 0.02 µM)	11.5%
Cc1ccc(NC(=O)c2cccc(N(C)C)c2)cc1NC(=O)c1ccc(O)cc1 + Oc1cc(-c2nc(-c3ccccc3)[nH]c2-c2ccncc2)ccc1Cl [L779450] (first compound 2 µM, partner dose 0.2 µM)	108%
Cn1nnc2c(C(N)=O)ncn2c1=O [temozolomide] + CCN(CC)CCCCNc1ncc2cc(-c3cc(OC)cc(OC)c3)c(NC(=O)NC(C)(C)C)nc2n1 [PD173074] (first compound 2 µM, partner dose 0.1 µM)	50.3%
CC(=O)c1c(C)c2cnc(Nc3ccc(N4CCNCC4)cn3)nc2n(C2CCCC2)c1=O [palbociclib] + COc1ccc(COc2ccc(Cc3cnc(N)nc3N)cc2OC)cc1 [GW2580] (first compound 0.04 µM, partner dose 1 µM)	33.5%
C[C@]1(c2nc3c(C(N)=O)cccc3[nH]2)CCCN1 [Veliparib] + COc1cc2c(Oc3ccc4[nH]c(C)cc4c3F)ncnc2cc1OCCCN1CCCC1 [cediranib] (first compound 1.4 µM, partner dose 0.4 µM)	47.4%
C=CCn1c(=O)c2cnc(Nc3ccc(N4CCN(C)CC4)cc3)nc2n1-c1cccc(C(C)(C)O)n1 + OCCn1cc(-c2cnc3nnn(Cc4ccc5ncccc5c4)c3n2)cn1 [PF04217903] (first compound 0.02 µM, partner dose 1 µM)	91.7%

As a short view, some entries already given:
Compound	cleaved PARP positive nuclei fraction
C=CCNC1=C2C[C@@H](C)C[C@H](OC)[C@H](O)[C@@H](C)/C=C(\C)[C@H](OC(N)=O)[C@@H](OC)/C=C\C=C(/C)C(=O)NC(=CC1=O)C2=O [Tanespimycin] + COc1ccc(-c2ccc3c(N4CCOCC4)nc(N4C[C@@H](C)O[C@@H](C)C4)nc3n2)cc1CO [KU0063794] (first compound 0.002 µM, partner dose 0.02 µM)	11.5%
Cc1ccc(NC(=O)c2cccc(N(C)C)c2)cc1NC(=O)c1ccc(O)cc1 + Oc1cc(-c2nc(-c3ccccc3)[nH]c2-c2ccncc2)ccc1Cl [L779450] (first compound 2 µM, partner dose 0.2 µM)	108%
Cn1nnc2c(C(N)=O)ncn2c1=O [temozolomide] + CCN(CC)CCCCNc1ncc2cc(-c3cc(OC)cc(OC)c3)c(NC(=O)NC(C)(C)C)nc2n1 [PD173074] (first compound 2 µM, partner dose 0.1 µM)	50.3%
CC(=O)c1c(C)c2cnc(Nc3ccc(N4CCNCC4)cn3)nc2n(C2CCCC2)c1=O [palbociclib] + COc1ccc(COc2ccc(Cc3cnc(N)nc3N)cc2OC)cc1 [GW2580] (first compound 0.04 µM, partner dose 1 µM)	33.5%
C[C@]1(c2nc3c(C(N)=O)cccc3[nH]2)CCCN1 [Veliparib] + COc1cc2c(Oc3ccc4[nH]c(C)cc4c3F)ncnc2cc1OCCCN1CCCC1 [cediranib] (first compound 1.4 µM, partner dose 0.4 µM)	47.4%

system: A2058; test: as above; settings: library dose: low library concentration; 72 h

Compound	cleaved PARP positive nuclei fraction
O=C(Nc1cccc(Cl)c1)Nc1ncc(CCNc2ncnc3ccsc23)s1 + O=C(O)c1ccc(-c2c[nH]c3ncc(-c4ccccc4)cc23)cc1C1CCCC1 [GSK650394] (first compound 0.0008 µM, partner dose 0.16 µM)	132%
O=C(Nc1cccc(Cl)c1)Nc1ncc(CCNc2ncnc3ccsc23)s1 + CN(NC(=O)CC(=O)NN(C)C(=S)c1ccccc1)C(=S)c1ccccc1 [STA4783] (first compound 0.0008 µM, partner dose 0.006 µM)	165%
Cn1nnc2c(C(N)=O)ncn2c1=O [temozolomide] + Cc1cc([N+](=O)[O-])ccc1NS(=O)(=O)c1cc(Cl)ccc1Cl [FH535] (first compound 2 µM, partner dose 1 µM)	211%
Cc1nc(Nc2ncc(C(=O)Nc3c(C)cccc3Cl)s2)cc(N2CCN(CCO)CC2)n1 [dasatanib] + C[C@]1(c2nc3c(C(N)=O)cccc3[nH]2)CCCN1 [Veliparib] (first compound 0.004 µM, partner dose 1.4 µM)	269%
NC(=O)Nc1cc(-c2cccc(F)c2)sc1C(=O)N[C@H]1CCCNC1 + O=C(Nc1cccc(Cl)c1)Nc1ncc(CCNc2ncnc3ccsc23)s1 [SNS314] (first compound 0.02 µM, partner dose 0.0008 µM)	140%
CC1(C)NC(=O)N(c2ccc([N+](=O)[O-])c(C(F)(F)F)c2)C1=O [nilutamide] + CO[C@@H]1[C@H](N(C)C(=O)c2ccccc2)C[C@H]2O[C@]1(C)n1c3ccccc3c3c4c(c5c6ccccc6n2c5c31)C(=O)NC4 [Midostaurin] (first compound 1 µM, partner dose 0.08 µM)	129%
Cc1nc(Nc2ncc(C(=O)Nc3c(C)cccc3Cl)s2)cc(N2CCN(CCO)CC2)n1 [dasatanib] + Cn1cc(/C=C2\C(=O)Nc3cccnc32)c2ccccc21 [GW441756] (first compound 0.004 µM, partner dose 0.4 µM)	138%
OCc1c[nH]c2ccccc12 [Indole-3-carbinol] + Clc1ccc(Nc2nnc(Cc3ccncc3)c3ccccc23)cc1 [vatalanib] (first compound 0.8 µM, partner dose 2 µM)	230%
C=CCNC1=C2C[C@@H](C)C[C@H](OC)[C@H](O)[C@@H](C)/C=C(\C)[C@H](OC(N)=O)[C@@H](OC)/C=C\C=C(/C)C(=O)NC(=CC1=O)C2=O [Tanespimycin] + Cn1nnc2c(C(N)=O)ncn2c1=O [temozolomide] (first compound 0.002 µM, partner dose 2 µM)	94.4%
Cc1cc(N2CCOCC2)cc2[nH]c(-c3c(NC[C@@H](O)c4cccc(Cl)c4)cc[nH]c3=O)nc12 + Oc1nc(-c2ccc(C(F)(F)F)cc2)nc2c1CSCC2 [XAV939] (first compound 0.2 µM, partner dose 2 µM)	85.3%
Clc1ccc(Nc2nnc(Cc3ccncc3)c3ccccc23)cc1 [vatalanib] + COc1cc(Nc2ncc(F)c(Nc3ccc4c(n3)NC(=O)C(C)(C)O4)n2)cc(OC)c1OC [Tamatinib] (first compound 2 µM, partner dose 0.4 µM)	91.5%
Cc1cc(N2CCOCC2)cc2[nH]c(-c3c(NC[C@@H](O)c4cccc(Cl)c4)cc[nH]c3=O)nc12 + Oc1cc(-c2nc(-c3ccccc3)[nH]c2-c2ccncc2)ccc1Cl [L779450] (first compound 0.2 µM, partner dose 0.2 µM)	32.3%
C=CCn1c(=O)c2cnc(Nc3ccc(N4CCN(C)CC4)cc3)nc2n1-c1cccc(C(C)(C)O)n1 + Cc1cc([N+](=O)[O-])ccc1NS(=O)(=O)c1cc(Cl)ccc1Cl [FH535] (first compound 0.02 µM, partner dose 1 µM)	103%
Cc1ccc(NC(=O)c2cccc(N(C)C)c2)cc1NC(=O)c1ccc(O)cc1 + CC(C)(C)c1cnc(CSc2cnc(NC(=O)C3CCNCC3)s2)o1 [SNS-032] (first compound 2 µM, partner dose 0.01 µM)	76.7%
Cc1nc(Nc2ncc(C(=O)Nc3c(C)cccc3Cl)s2)cc(N2CCN(CCO)CC2)n1 [dasatanib] + NC(=O)Nc1cc(-c2cccc(F)c2)sc1C(=O)N[C@H]1CCCNC1 [AZD7762] (first compound 0.004 µM, partner dose 0.02 µM)	75.3%
C#Cc1cccc(Nc2ncnc3cc(OCCOC)c(OCCOC)cc23)c1 [erlotinib] + COc1ccc(Cl)c(Nc2nc3ccccc3nc2NS(=O)(=O)c2cccc(NC(=O)C(C)(C)N)c2)c1 [XL147] (first compound 0.8 µM, partner dose 0.8 µM)	146%
CO[C@@H]1[C@H](N(C)C(=O)c2ccccc2)C[C@H]2O[C@]1(C)n1c3ccccc3c3c4c(c5c6ccccc6n2c5c31)C(=O)NC4 [Midostaurin] + c1cc(-c2cnn3cc(-c4ccc(OCCN5CCCCC5)cc4)cnc23)ccn1 [Dorsomorphin] (first compound 0.08 µM, partner dose 0.4 µM)	70.3%
NC(=O)Nc1cc(-c2cccc(F)c2)sc1C(=O)N[C@H]1CCCNC1 + N#Cc1c(O)c2c(-c3ccc(-c4ccccc4O)cc3)csc2[nH]c1=O [A769662] (first compound 0.02 µM, partner dose 2 µM)	76.4%
C[C@]1(c2nc3c(C(N)=O)cccc3[nH]2)CCCN1 [Veliparib] + Cc1cc(N2CCOCC2)cc2[nH]c(-c3c(NC[C@@H](O)c4cccc(Cl)c4)cc[nH]c3=O)nc12 [BMS536924] (first compound 1.4 µM, partner dose 0.2 µM)	151%
OCCn1cc(-c2cnc3nnn(Cc4ccc5ncccc5c4)c3n2)cn1 + CCN(CC)CCCCNc1ncc2cc(-c3cc(OC)cc(OC)c3)c(NC(=O)NC(C)(C)C)nc2n1 [PD173074] (first compound 1 µM, partner dose 0.1 µM)	42.5%
CC(=O)c1c(C)c2cnc(Nc3ccc(N4CCNCC4)cn3)nc2n(C2CCCC2)c1=O [palbociclib] + O=S(=O)(c1ccccc1)N(CC(F)(F)F)c1ccc(C(O)(C(F)(F)F)C(F)(F)F)cc1 [T0901317] (first compound 0.04 µM, partner dose 1.4 µM)	165%
